Experimental data reported in patent US20260242353A1, “HETEROARYL DERIVATIVES AS DDRs INHIBITORS” (CHIESI FARMACEUTICI S.P.A., priority 2022, published 2026).

Sequences of proteins named here, by UniProt entry; tags and fusion partners are left off. Residues count along the entry.
UniProt Q16832, 22-855 limits assumed: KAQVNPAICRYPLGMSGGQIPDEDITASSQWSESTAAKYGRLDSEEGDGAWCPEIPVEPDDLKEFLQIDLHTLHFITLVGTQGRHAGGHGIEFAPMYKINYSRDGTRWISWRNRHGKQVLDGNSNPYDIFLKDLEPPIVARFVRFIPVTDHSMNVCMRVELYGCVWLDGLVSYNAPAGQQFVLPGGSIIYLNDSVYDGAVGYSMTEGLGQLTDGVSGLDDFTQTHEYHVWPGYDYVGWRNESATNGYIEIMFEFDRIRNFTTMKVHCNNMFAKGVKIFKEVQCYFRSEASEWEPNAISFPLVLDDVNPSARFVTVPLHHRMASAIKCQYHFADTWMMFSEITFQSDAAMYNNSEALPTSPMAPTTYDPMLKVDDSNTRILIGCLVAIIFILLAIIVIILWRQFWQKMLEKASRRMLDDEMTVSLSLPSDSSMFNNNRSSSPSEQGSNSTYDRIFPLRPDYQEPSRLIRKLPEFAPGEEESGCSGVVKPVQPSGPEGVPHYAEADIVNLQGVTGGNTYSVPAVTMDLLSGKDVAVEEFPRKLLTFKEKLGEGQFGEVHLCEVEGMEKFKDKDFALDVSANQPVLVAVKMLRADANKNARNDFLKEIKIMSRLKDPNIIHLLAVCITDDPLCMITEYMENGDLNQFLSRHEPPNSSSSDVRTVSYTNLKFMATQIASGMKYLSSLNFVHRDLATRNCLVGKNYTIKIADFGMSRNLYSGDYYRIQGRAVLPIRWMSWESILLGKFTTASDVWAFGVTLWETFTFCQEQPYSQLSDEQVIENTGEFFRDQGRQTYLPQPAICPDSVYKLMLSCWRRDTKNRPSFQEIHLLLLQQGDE
UniProt Q08345, 19-913 limits assumed: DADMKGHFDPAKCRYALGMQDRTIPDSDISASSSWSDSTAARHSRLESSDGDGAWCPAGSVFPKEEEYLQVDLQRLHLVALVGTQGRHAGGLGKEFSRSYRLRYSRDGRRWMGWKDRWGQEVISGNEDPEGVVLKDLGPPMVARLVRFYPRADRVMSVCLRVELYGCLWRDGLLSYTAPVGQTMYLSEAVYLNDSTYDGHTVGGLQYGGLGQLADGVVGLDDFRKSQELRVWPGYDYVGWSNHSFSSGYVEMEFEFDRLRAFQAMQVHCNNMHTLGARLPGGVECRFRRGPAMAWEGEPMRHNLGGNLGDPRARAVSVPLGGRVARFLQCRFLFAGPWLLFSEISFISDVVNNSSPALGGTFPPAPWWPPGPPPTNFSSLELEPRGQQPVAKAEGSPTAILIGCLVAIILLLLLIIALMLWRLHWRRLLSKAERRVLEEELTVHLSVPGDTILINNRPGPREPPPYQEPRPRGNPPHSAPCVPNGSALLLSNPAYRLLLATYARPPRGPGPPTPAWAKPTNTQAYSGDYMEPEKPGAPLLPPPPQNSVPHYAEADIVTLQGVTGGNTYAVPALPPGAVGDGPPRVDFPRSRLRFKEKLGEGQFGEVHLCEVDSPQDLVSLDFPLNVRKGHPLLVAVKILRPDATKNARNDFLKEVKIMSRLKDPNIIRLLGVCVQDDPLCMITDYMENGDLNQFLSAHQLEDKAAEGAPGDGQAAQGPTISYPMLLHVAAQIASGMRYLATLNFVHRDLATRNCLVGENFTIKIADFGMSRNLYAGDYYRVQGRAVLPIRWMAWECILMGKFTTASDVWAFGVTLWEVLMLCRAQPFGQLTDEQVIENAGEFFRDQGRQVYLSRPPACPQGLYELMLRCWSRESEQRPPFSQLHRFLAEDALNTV

Tests used:
DDR2 = DDR2 (Homo sapiens, UniProt Q16832); assay: LanthaScreen Europium Kinase Binding assay, DDR2; conditions: read-out: Ki DDR2; 5 nM DDR2, 10 nM Kinase Tracer 178, 1 h at rt; Ki from IC50 by Cheng-Prusoff
Protocol: (§1) DDR1 and DDR2 binding assays were performed using Life Technologies LanthaScreen™ Europium Kinase Binding assay. The compounds were incubated with 5 nM DDR1 (Carna Biosciences) or 5 nM DDR2 (Life Technologies) for 1 h at rt in white 384-well OptiPlate (PerkinElmer), containing 20 nM or 10 nM Kinase Tracer 178 respectively and 2 nM Europium labelled anti-GST antibody (Life Technologies) in assay buffer (50 mM HEPES pH 7.5, 10 mM MgCI2, 1 mM EGTA and 0.01% BRIJ35). The ratio of fluorescence emission 665 nm/615 nm after excitation at 340 nm was obtained using the Tecan Spark 20M plate reader. IC50 values were determined in GraphPad Prism 7.0 software, using 4 parameter model: log(inhibitor) vs. response. IC50 values were converted in Ki using the Cheng-Prusoff equation (Ki=IC50/(1+[Tracer]/Kd).

DDR1 = DDR1 (Homo sapiens, UniProt Q08345); assay: LanthaScreen Europium Kinase Binding assay, DDR1; conditions: read-out: Ki DDR1; 5 nM DDR1, 20 nM Kinase Tracer 178, 1 h at rt; Ki from IC50 by Cheng-Prusoff
Protocol: as §1

| SMILES | Ki (DDR2) | Ki (DDR1) |
| --- | --- | --- |
| Cc1ccc(C(=O)Nc2cncc(C(F)(F)F)c2)cc1[C@@H]1CCN(c2nccnc2N)C1 | < 5 nM | < 5 nM |
| Cc1ccc(C(=O)Nc2cncc(OC(F)(F)F)c2)cc1[C@@H]1CCN(c2cnn3cccnc23)C1 | 5 to 25 nM | < 5 nM |
| Cc1ccc(C(=O)Nc2cncc(C(F)(F)F)c2)cc1[C@@H]1CCN(c2cncnc2)C1 | < 5 nM | < 5 nM |
| Cc1ccc(C(=O)Nc2cncc(C(F)(F)F)c2)cc1[C@@H]1CCN(c2cnc3cnc(N4CCN(C)CC4)cn23)C1 | 5 to 25 nM | < 5 nM |

The structures given here were assigned with low confidence; some may be wrong.
